Out of some 52,000 sequences screened, about 210 (0.4%) were called active.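 How the source made its calls: active means gene whose silencing raises cell survival under the drug, median off-target-corrected z-score across its silencing RNAs 2 or more; inactive means the rest.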 This is one part of the list.

A short description of this experiment: Resistance to Poly (ADP-Ribose) Polymerase inhibitor: Gene Identification via Genome-wide siRNA Screen. Particulars: mouse BRCA2 R2336H ES cells, olaparib, CellTiter-Glo viability; active compounds read high. Summed up:
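Genome-wide siRNA screen (3 siRNAs/gene, 20 nM) in mouse ES cells carrying hypomorphic BRCA2 R2336H; olaparib 500 nM added 48 h post-transfection, CellTiter-Glo viability 72 h later. Normalized to plate-median negative control; MAD z-scores, gene median, seed-adjusted.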
In general terms: Cellular ATP, detected with luciferase, serves as a proxy for viable cell number.
For GCGGGUAACCUCAUGUCUUTT against Phyhip, the z-score was inactive: 0.347.
As for GGUGGAAACAGAAUGGUACTT against Cntn6, the z-score was inactive: -0.295.
The value for CGACGAAGACGUGAACAAGTT against Trappc3 was inactive: -2.14.
The value for CGCACAGAGAAUAAGGGAATT against Tcta was inactive: 0.956; that for GGCAGUUUUAUGAACUAUUTT against AI854635 was inactive: 0.377.
Next, GGAUGGUAACCAUCAUAUUTT against V1ra9: inactive: -0.292; GGAACCUUUUAUUCAAGAATT against Cklfsf3: inactive: 1.06.
Turning to “GGCCUGGUGCUACUUCUCATT against 4632419K20Rik”, the z-score was inactive: -2.2.
Next, GGCUGGUGAAAGUCAAGGUTT against Rbbp1: inactive: -0.247; GCUUUUGGGUUGUAAGAGATT against Ralgps2: inactive: 0.0808; GGACAUGUUGGAGAAGCAATT against B3galt6: inactive: 1.43.
For the sequence CCAGAAAAAAGAUUGUACATT against Hesx1, the z-score is inactive: 0.891.
The value for GGAGUGGGAAAACAACAAATT against Cpxm1 was inactive: 0.176; that for GCAACAAUUGCUAGCGUGGTT against Sec23ip was inactive: 1.12; that for UUUACUAGACCUGAUGGCUTT against Olfr815 was inactive: 0.0206.
Next, GGAUCUCAGCUUCACUCCUTT against Noc4: inactive: 0.818.
As for GGGCAUAUUCAAACUUGUGTT against Elf2, the z-score is inactive: 0.52.
Next, GCAGUUCUCAUACUAUCAUTT against Gm1082: inactive: -0.986; “GCCGCUGCACACUUUCUAUTT against 4732463G12Rik”: inactive: -1.18.
Turning to GCCCUUAGCUGCAUGAAUUTT against Laptm4b, the z-score is inactive: 1.41.
In the case of GCUGCCCGACCAAACAUUUTT against Mtch1, the z-score is inactive: -0.769.
Next, GGAAUUGUUAAGGACGUAGTT against Nupl2: inactive: 0.0322; GGAUGGCCUGGCCUUCAAUTT against Spnb1: inactive: -0.0598.
The value for GGAGAAGAACUAAAACUUATT against Bbs7 was inactive: 1.8; that for GGGUGAUGAGAUCUGUCUGTT against Rent1 was inactive: -1.04; that for “GAAGCCUGGAAGGAAAACUTT against 1190017O12Rik” was inactive: -0.267.
Next, CGAAUGCAACAUGUGAUGUTT against Gm83: inactive: 0.607; CCAUUGAGACUUUUGCCAATT against Gabbr1: inactive: 1.26; GGCCUGUAUUUAGAUGUAUTT against Pts: inactive: -1.96.
In the case of GGAAGAGACAACAGCUAUCTT against B3galt4, the z-score was inactive: 0.0714.
Next, GCGGAUUCGACAACAACAGTT against Mpp5: inactive: -0.0832; “GGCUCUCAGCUGAAAGAAATT against 2810046M22Rik”: inactive: -1.13.
Next, GGGUAUCAAUCUUAGGUUATT against LOC208158: inactive: 0.273; GGAAUUGUUUGUGCUGCUUTT against Mapk9: inactive: -2.34.
Next, “GGAGAAAGGAUCUCAGUGUTT against C030011O14Rik”: inactive: -2.69; CCAAGUCUACCUCUAUUUUTT against Pbsn: inactive: 0.471.
As to GGCAAAUGUACUAAAAUGATT against Gpr34, the z-score is inactive: -0.206.
Next, GCGAUGAAAUCUAAAGCCATT against Gpr146: inactive: 0.173; GCCACAUGGUUAAUAAGAGTT against Postn: inactive: -1.23; GGCUGAUGAGUAUAGUUUATT against Serpini2: inactive: -0.656.
In the case of GCUCUGUGUUCUUAGGAGATT against Gaa, the z-score was inactive: 1.09.
The value for GGUUCUCACCACUGUAGACTT against BC061928 was inactive: 0.258; that for “CCUACUAGAUUCCUACUUUTT against 2810429O05Rik” was inactive: -1.19; that for CCCUAACUACUUCAUGAAUTT against Paip1 was inactive: 0.365.
The value for “GGGAAUAAUCUACAAGCCATT against 6530421E24Rik” was inactive: -1.33; that for GCACCGGCUUUACUAAUGGTT against Ppnr was inactive: -1.09.
As to GCGACUACAAGGAUACCCUTT against Krt2-6g, the z-score was inactive: 1.07.
Next, GAGAUGGAAAGUGGUUUCUTT against Olfr1226: inactive: -0.551; GGAAUAAGAUGAAAUACCCTT against Tmeff2: inactive: -0.49; GGAGGACAAUGAUUUCCGATT against Ndst3: inactive: 0.936.
The value for GGACCAGAAAUACAUUUUCTT against Arhgef2 was inactive: -0.784; that for UCCUCCUGUCUUACGUACGTT against Gpr10 was inactive: 1.45; that for CCCUGACUAUACGUAUAACTT against Selpl was inactive: -0.105.
The value for UGCGUUUUGUGCUUCCUGUTT against Olfr960 was inactive: -0.259; that for GGAAUGCAUGCUAAUUCAGTT against Thsd1 was inactive: 1.49.
Regarding “GCAACACAGAUCUUAGAAATT against 1810030O07Rik”, the z-score is inactive: -1.15.
As for GGAAGCUGGUUCUACUGUCTT against Arl6ip1, the z-score was inactive: -1.54.
The value for GGAGCAGAGAAACUUCUCGTT against Perq1 was inactive: -0.477; that for GCCUAUGUACAGUUUGAAGTT against Grsf1 was inactive: 0.44; that for GGUUAUACGCUUAGAUUUATT against Irx5 was inactive: 1.4.
Take GGUUGGAGCACUAGUGAGATT against D1Wsu40e: the z-score is inactive: -1.05.
With GGGAAAAUCUCUGAAAGAATT against Bag1, the z-score is inactive: -1.37.
The value for GGGAACAGCAUGAAGGAAGTT against Kb40 was inactive: 0.497.
On to GGAAACCUGAUUGCAUAUGTT against Nup37, for which the z-score was inactive: -0.985.
The value for GGAAUGUGUUGAAAUAUGATT against P4ha3 was inactive: 1.68; that for GCCACACAGAUACCAGAUATT against Wbscr27 was inactive: -1.29.
Next, GGCCACAGAACCACAAAACTT against Pon3: inactive: 0.142; CGUGGCACUAGAGAUCAAUTT against Arid3c: inactive: -0.696; GAGGAAGUCCACGAAACUATT against Csh1: inactive: 0.1.
Next, CCACAUGUCACAUCUUUUCTT against Mrpl47: inactive: 0.956; “GGAUACUCUGGAGAAGUGUTT against 2410043F08Rik”: inactive: -0.993; GGUUGGCAAGUCCUUUUGUTT against BC028265: inactive: -0.717.
On to “GGGACUUGCACUCAUCUUCTT against 2010005O13Rik”, for which the z-score was inactive: 1.63.
Regarding “GCUACACCGUAACAUGCUATT against C230075L19Rik”, the z-score was inactive: 0.776.
GCGAAGAGAUGCUAACUAUTT against Dhx8: the z-score was inactive: -2.
In the case of CCUUCAAUUUCAGUUCAGATT against Olfr1388, the z-score was inactive: 0.422.
Next, “GGAGGAAUCGCACUAUAUUTT against D3Bwg0562e”: inactive: 0.0289; GGCCUGAGAUGACAACGACTT against Rpl35: inactive: -2.94.
The value for GGUACGUGAGAGAAUUCUGTT against Trem2 was inactive: 1.18.
GUUGCAUUUCUCUCAAAGATT against Olfr799: the z-score was inactive: -0.0403.
Take CGUACUGGUACGGAAGCGUTT against Adck1: the z-score is inactive: 1.67.
The value for CCUGUUGUACUGGAAGGACTT against Rtn2 was inactive: 0.367; that for CCUGUCAUCACACACUAAUTT against Zbed4 was inactive: 0.915.
Turning to GGCUACGUGAAGGAACAGUTT against Rps10, the z-score was inactive: -2.37.
Consider CCCAUCAUUCCUUUCUUACTT against Ndfip2, for which the z-score is inactive: -0.21.
The value for AAAGUGCAGAAAAAGCUGATT against Speer4d was inactive: 0.745.
Next, GGGAAUUCAGGAACACUUUTT against Galk2: inactive: -1.36.
The value for CCCAUCAGACUUUGACCGUTT against Lbh was inactive: 0.987; that for GCUUGUUUACAUCGGACUUTT against LOC434881 was inactive: -1.4; that for GGAUGACAUCACAAGCAUCTT against Il24 was inactive: -0.0873.
In the case of GGCACUGGCAGGAAAUUACTT against Alg6, the z-score is inactive: 1.45.
Regarding GCAUCAAAAACGAGCCCUUTT against Pscd1, the z-score was inactive: -1.63.
Next, GGUGUUCGUUGUGUGUCUUTT against Abcc2: inactive: -0.694; “CCAUUAAGAUCCGAAGUAUTT against C330018J07Rik”: inactive: 0.42.
Next, CCUGUACUACUGAUUAUUATT against Tera: inactive: -1.21; GGCAGCCAACGGAUUAAACTT against Cacna2d1: inactive: 0.525.
The value for “GGAAGAGGUGGAGUUUGUGTT against 2310026J01Rik” was inactive: 0.684; that for CCAUUCUUUCCUAUGGCUATT against Olfr1415 was inactive: 1.53.
Take GCCGAAGACGGAGUAAGUATT against Epha4: the z-score was inactive: -1.94.
Next, GGCCAGAUGACAUUUUAGGTT against Map3k9: inactive: 0.808; “CGAUACCCAACUGUUGAAATT against 4932432K03Rik”: inactive: -0.42.
Next, GGAUGUGGGCACAAAAACUTT against St6gal1: inactive: -0.126.
For GGAAAGAGUAAGAUUUUGATT against Dnahc11, the z-score is inactive: 2.77.
The value for GGCAGUGAUUGACUUCCUATT against LOC212390 was inactive: -1.1; that for ACUUCUCCAAGCUGAACCUTT against Ubie was inactive: -1.93.

For the origin of these results see PubChem BioAssay AID1347423 (Functional Genomics Laboratory (NCATS/FGL), 2020).
